From the supplement of paper PMC10849652
The other results are listed elsewhere or left out.

By UniProt entry, the sequences of proteins in these tests, tags left out. Where a name states a change or a piece, a line headed by the entry shows the natural chain unless it says otherwise.
UniProt P49459, whole entry, looked up: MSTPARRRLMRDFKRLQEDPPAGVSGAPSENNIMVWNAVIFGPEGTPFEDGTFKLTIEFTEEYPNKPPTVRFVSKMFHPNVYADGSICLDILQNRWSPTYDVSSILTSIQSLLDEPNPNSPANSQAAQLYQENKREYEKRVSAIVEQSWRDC
UniProt P43897: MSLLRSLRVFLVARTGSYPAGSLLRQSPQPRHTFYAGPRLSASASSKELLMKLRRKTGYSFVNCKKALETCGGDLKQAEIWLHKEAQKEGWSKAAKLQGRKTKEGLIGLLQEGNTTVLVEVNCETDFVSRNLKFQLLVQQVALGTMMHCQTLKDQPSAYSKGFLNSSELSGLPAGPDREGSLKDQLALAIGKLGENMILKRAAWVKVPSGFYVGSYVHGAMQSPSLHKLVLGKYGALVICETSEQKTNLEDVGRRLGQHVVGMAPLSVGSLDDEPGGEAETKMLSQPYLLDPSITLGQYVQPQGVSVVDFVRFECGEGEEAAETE
UniProt Q14166: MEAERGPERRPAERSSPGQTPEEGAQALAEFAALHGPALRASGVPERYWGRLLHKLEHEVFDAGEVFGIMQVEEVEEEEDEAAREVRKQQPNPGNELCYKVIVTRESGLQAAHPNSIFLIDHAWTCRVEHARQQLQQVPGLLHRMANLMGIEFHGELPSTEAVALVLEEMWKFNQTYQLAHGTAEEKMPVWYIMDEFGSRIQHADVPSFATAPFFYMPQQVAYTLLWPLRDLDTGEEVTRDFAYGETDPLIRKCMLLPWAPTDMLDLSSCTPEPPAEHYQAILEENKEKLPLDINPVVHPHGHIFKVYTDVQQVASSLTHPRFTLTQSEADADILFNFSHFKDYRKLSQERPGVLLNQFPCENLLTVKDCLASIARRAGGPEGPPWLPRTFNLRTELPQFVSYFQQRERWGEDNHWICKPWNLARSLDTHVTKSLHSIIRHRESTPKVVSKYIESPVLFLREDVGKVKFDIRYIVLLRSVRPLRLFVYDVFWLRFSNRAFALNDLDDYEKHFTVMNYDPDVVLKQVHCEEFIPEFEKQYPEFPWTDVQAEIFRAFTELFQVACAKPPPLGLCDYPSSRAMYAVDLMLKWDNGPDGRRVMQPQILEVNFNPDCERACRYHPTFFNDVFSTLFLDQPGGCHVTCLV
UniProt P63146, whole entry, looked up: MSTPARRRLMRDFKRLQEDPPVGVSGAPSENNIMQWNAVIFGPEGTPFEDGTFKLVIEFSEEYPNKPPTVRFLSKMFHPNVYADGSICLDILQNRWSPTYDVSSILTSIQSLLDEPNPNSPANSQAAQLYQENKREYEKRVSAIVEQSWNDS
UniProt P62253: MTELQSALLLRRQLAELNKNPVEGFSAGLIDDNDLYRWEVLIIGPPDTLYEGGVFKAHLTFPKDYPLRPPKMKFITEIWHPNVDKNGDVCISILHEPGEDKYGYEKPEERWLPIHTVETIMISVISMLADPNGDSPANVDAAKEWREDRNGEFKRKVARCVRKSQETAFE
UniProt O15042: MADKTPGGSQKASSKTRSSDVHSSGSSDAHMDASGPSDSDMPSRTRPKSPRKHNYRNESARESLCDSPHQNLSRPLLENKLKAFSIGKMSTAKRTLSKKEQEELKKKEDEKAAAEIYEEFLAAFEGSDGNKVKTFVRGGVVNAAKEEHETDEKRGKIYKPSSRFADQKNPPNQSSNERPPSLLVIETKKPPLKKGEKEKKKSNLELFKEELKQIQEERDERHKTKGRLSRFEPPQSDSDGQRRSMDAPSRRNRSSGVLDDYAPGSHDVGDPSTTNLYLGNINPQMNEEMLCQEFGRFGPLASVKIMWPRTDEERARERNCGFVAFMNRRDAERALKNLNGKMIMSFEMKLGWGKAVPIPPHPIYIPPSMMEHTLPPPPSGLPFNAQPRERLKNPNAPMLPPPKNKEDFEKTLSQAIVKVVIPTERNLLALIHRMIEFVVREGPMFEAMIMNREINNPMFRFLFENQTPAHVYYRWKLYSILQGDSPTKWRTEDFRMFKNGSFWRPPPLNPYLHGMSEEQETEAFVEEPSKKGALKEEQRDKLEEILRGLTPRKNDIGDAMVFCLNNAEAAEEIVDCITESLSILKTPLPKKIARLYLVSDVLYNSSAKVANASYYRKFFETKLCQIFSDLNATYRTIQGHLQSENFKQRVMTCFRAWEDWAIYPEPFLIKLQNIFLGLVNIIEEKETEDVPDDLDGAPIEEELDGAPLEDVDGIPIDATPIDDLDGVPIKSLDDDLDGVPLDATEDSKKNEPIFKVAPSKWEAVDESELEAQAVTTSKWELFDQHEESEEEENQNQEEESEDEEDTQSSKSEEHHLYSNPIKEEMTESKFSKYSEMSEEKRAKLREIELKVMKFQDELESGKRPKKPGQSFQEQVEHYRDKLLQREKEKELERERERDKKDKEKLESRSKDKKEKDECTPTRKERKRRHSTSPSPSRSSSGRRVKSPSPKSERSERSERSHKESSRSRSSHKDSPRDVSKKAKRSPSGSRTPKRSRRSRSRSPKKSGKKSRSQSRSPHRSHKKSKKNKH
UniProt P68366, whole entry, looked up: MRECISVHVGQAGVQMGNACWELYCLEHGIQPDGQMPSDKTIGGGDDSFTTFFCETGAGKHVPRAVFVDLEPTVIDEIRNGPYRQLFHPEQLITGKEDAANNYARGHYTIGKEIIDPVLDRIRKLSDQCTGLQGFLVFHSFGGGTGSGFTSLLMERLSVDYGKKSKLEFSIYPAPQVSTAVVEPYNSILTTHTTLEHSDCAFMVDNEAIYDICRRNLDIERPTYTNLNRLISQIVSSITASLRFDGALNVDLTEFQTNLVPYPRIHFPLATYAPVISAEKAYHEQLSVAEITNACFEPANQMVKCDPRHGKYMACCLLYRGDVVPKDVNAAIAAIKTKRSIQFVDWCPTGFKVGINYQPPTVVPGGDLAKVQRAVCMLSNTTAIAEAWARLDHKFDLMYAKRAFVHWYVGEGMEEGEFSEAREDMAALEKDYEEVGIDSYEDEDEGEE
UniProt Q16881, whole entry, looked up: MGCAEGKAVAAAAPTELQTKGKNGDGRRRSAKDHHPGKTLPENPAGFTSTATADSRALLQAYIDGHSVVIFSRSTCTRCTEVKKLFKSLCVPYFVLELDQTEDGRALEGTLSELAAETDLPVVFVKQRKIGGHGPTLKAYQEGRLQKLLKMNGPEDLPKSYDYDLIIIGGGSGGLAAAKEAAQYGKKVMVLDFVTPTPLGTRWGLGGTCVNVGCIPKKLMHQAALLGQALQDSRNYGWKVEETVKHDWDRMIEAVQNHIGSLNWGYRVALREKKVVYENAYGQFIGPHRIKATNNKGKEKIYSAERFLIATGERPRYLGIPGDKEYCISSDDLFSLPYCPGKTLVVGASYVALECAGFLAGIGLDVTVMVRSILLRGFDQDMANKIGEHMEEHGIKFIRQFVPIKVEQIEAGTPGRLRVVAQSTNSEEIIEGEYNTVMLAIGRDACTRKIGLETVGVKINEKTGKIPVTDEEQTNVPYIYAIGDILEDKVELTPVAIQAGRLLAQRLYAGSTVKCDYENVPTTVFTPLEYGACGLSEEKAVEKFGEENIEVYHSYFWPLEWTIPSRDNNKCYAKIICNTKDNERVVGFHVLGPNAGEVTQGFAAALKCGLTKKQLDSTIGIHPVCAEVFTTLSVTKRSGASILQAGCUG
UniProt O43156, whole entry, looked up: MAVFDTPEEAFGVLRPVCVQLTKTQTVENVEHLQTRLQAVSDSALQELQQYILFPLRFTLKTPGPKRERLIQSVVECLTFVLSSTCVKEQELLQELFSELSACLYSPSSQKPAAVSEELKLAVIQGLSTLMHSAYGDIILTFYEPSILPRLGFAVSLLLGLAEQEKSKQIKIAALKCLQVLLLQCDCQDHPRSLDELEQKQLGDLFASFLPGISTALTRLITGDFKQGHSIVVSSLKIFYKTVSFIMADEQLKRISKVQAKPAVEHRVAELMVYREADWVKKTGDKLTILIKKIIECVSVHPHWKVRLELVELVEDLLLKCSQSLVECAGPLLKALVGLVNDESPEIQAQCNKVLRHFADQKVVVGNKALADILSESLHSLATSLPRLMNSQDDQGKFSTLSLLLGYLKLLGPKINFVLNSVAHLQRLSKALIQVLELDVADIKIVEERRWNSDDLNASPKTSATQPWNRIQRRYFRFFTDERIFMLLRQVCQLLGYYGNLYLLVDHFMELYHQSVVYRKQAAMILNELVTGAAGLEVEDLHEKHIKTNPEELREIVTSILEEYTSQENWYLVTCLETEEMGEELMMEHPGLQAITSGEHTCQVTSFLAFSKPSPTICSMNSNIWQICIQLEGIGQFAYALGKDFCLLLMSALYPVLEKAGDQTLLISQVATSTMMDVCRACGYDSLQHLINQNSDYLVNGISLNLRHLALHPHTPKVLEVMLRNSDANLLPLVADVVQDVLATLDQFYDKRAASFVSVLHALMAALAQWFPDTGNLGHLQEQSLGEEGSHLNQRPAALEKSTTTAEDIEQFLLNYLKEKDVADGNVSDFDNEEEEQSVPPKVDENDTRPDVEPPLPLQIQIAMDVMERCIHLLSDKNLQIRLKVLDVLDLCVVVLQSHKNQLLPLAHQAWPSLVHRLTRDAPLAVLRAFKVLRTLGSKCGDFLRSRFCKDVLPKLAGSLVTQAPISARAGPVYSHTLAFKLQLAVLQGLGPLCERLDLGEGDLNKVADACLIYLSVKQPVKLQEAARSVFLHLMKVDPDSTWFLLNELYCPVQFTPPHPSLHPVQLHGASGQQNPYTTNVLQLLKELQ
UniProt P07437, whole entry, looked up: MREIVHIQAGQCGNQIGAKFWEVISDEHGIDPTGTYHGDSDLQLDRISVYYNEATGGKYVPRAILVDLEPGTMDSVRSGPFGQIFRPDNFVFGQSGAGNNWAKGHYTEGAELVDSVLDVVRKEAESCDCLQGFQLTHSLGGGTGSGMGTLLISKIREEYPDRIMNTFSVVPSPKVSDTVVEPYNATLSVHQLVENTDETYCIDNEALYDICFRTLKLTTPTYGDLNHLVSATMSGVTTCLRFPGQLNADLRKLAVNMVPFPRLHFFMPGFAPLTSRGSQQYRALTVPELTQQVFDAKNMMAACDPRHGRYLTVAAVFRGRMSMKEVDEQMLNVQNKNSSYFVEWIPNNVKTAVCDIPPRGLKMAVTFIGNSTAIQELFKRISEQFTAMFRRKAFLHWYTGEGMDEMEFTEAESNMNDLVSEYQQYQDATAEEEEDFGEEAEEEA
UniProt Q96RR1: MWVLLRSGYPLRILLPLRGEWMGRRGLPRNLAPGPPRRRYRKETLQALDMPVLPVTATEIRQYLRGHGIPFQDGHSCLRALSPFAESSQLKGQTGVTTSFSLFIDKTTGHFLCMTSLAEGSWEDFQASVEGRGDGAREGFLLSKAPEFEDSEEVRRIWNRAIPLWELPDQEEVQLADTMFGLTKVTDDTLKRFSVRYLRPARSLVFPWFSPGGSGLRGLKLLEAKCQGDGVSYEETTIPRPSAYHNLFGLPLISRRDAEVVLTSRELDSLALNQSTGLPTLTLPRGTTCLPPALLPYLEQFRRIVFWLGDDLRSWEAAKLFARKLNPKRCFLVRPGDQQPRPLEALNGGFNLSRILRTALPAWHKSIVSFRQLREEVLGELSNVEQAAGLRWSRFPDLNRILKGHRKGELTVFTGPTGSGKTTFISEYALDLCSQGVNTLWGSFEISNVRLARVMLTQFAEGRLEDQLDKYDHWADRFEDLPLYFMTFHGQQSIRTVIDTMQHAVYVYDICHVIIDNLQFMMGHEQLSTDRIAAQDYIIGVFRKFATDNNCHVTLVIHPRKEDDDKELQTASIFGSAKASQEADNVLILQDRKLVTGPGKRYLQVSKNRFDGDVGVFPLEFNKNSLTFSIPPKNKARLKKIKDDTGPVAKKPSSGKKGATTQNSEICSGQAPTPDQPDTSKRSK
UniProt Q2NL82: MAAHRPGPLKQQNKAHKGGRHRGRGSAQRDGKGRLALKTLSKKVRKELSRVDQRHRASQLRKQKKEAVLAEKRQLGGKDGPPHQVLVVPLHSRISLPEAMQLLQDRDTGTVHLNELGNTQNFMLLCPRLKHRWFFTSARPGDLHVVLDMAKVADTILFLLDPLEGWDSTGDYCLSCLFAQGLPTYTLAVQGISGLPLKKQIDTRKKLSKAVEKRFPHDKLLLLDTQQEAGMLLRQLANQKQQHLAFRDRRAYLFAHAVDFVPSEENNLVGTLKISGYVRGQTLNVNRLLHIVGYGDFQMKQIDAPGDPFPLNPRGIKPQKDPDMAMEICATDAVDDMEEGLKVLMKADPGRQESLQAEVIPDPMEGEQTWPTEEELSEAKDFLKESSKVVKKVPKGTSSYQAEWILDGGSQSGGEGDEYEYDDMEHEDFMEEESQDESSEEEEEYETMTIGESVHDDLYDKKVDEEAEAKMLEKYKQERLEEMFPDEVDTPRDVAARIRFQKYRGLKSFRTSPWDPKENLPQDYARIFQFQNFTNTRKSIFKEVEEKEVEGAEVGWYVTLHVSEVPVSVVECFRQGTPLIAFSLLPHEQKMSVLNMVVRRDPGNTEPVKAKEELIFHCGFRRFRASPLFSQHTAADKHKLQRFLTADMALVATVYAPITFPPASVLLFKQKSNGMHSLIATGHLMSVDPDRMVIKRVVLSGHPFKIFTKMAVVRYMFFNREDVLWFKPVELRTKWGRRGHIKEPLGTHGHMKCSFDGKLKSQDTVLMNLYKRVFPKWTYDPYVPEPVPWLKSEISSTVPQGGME

What was measured:
Assay in all cases: log2 fold change, soluble protein after heating vs DMSO (PISA); higher = thermal stabilisation; K562 cells, 10 uM, 30 min; active = over 0.2 and 3.5 SD of the protein, either way, in both replicates (recomputed)
[1] = compound: C#Cc1cccc(Nc2ncnc3cc(OCCOC)c(OCCOC)cc23)c1 [erlotinib]
Method in brief: (§1)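 Soluble protein was defined as the supernatant after 21,000xg for 90 min. It came from K562 cells at 2×10^6 cells/mL given 10 μM compound for 30 min, heated in aliquots for 3 min across 48°C-58°C, pooled, and extracted in PBS with 0.5% NP-40 at 4°C, and was quantified by TMTpro 16plex LC-MS/MS with equalised channel sums. Thermal stability against control samples, from duplicates, is reported as log2 fold change.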

[2] = compound: C/C(=N\NC(=O)C1=CC(=CC=C1)S(=O)(=O)N2CCOCC2)/C3=C(C=CC(=C3)Cl)O
Method in brief: as §1

[3] = compound: C1=CC(=C(C=C1Cl)C2=NC3=NC=CN=C3C(=N2)NC4=CC=NC=C4)F
Method in brief: as §1

[4] = compound: C1=CC(=CC=C1C2=NC3=C(N2)C=C(C=C3)C(=O)N)OC4=CC=C(C=C4)Cl
Method in brief: as §1

[5] = compound: C1=CC2=C(C=CC(=C2)/C=C\3/C(=O)NC(=NCC4=CC=CS4)S3)N=C1
Method in brief: as §1

[6] = compound: C1=CC2=NC=CN=C2C=C1/C=C/3\C(=O)NC(=O)S3
Method in brief: as §1

[7] = compound: C1=CC=C(C=C1)C2=NC(=C(N2)C3=CC=NC=C3)C4=CC(=C(C=C4)Cl)O
Method in brief: as §1

[8] = compound: C1=CC=C2C(=C1)C3=NNC4=CC=CC(=C43)C2=O
Method in brief: as §1

[9] = compound: C1CCN(C1)C(=O)NC2=CC=CC(=C2)NC3=NC=C(C(=N3)NCCC4=CN=CN4)Br
Method in brief: as §1

[10] = compound: C1CN(CCC1(CC2=CC=C(C=C2)Cl)N)C3=NC=NC4=C3C=CN4
Method in brief: as §1

Measured: log2 fold change

TTC1 (UniProt Q99614)
inactive: [1] -0.037 | [2] -0.017 | [3] 0.001 | [4] 0.004 | [5] 0.011 | [6] 0.024 | [7] -0.009 | [8] 0.001 | [9] -0.001 | [10] 0.041

UBE2F isoform 2 (UniProt Q969M7)
inactive: [1] 0.041 | [2] 0.054 | [3] 0.053 | [4] 0.059 | [5] 0.001 | [6] -0.017 | [7] -0.001 | [8] 0.01 | [9] 0.005 | [10] 0.021

TTPAL (UniProt Q9BTX7)
inactive: [1] 0.025 | [2] 0.011 | [3] -0.021 | [4] -0.005 | [5] 0.017 | [6] 0.043 | [7] 0.056 | [8] 0.005 | [9] -0.035 | [10] 0.069

TXLNG (UniProt Q9NUQ3)
inactive: [1] -0.005 | [2] -0.01 | [3] 0.045 | [4] -0.003 | [5] 0.029 | [6] 0.008 | [7] -0.008 | [8] 0 | [9] -0.001 | [10] 0.021

Two successive entries out of the list so far:
TTPAL (UniProt Q9BTX7)
inactive: [1] 0.025 | [2] 0.011 | [3] -0.021 | [4] -0.005 | [5] 0.017 | [6] 0.043 | [7] 0.056 | [8] 0.005 | [9] -0.035 | [10] 0.069

TXLNG (UniProt Q9NUQ3)
inactive: [1] -0.005 | [2] -0.01 | [3] 0.045 | [4] -0.003 | [5] 0.029 | [6] 0.008 | [7] -0.008 | [8] 0 | [9] -0.001 | [10] 0.021

(next part)

UBA5 (UniProt Q9GZZ9)
inactive: [1] 0.018 | [2] 0.042 | [3] 0.005 | [4] 0.008 | [5] 0.026 | [6] 0.021 | [7] 0.041 | [8] -0.032 | [9] 0.06 | [10] -0.016

UBE2A (UniProt P49459)
inactive: [1] 0.013 | [2] 0.042 | [3] 0.114 | [4] 0.045 | [5] 0.005 | [6] -0.014 | [7] -0.049 | [8] 0.026 | [9] -0.098 | [10] -0.05

UBE2K (UniProt P61086)
inactive: [1] -0.005 | [2] 0.015 | [3] 0.121 | [4] -0.036 | [5] -0.045 | [6] -0.009 | [7] 0.119 | [8] -0.002 | [9] -0.009 | [10] 0.037

TSEN54 (UniProt Q7Z6J9)
inactive: [1] 0.182 | [2] 0.033 | [3] 0.015 | [4] 0.11 | [5] 0.017 | [6] -0.04 | [7] 0.037 | [8] -0.029 | [9] -0.11 | [10] 0.082

TSFM (UniProt P43897)
inactive: [1] 0.037 | [2] -0.004 | [3] 0.302 | [4] -0.206 | [5] 0.189 | [6] 0.044 | [7] 0.11 | [8] -0.069 | [9] -0.016 | [10] 0.095

TTLL12 (UniProt Q14166)
inactive: [1] -0.072 | [2] -0.022 | [3] -0.203 | [4] 0.007 | [5] 0.014 | [6] -0.109 | [7] -0.101 | [8] 0.032 | [9] -0.104 | [10] -0.247

TSG101 (UniProt Q99816)
inactive: [1] 0.022 | [2] 0.054 | [3] 0.051 | [4] 0.027 | [5] 0.046 | [6] 0.004 | [7] -0.032 | [8] 0 | [9] 0.003 | [10] -0.006

UBE2M (UniProt P61081)
inactive: [1] 0.01 | [2] 0.019 | [3] 0.099 | [4] -0.026 | [5] 0.039 | [6] 0.01 | [7] 0.015 | [8] 0.016 | [9] -0.005 | [10] 0.033

TXLNA (UniProt P40222)
inactive: [1] -0.039 | [2] 0.033 | [3] 0.071 | [4] -0.008 | [5] -0.001 | [6] 0 | [7] 0.001 | [8] 0.035 | [9] 0.008 | [10] 0.005

TSNAX (UniProt Q99598)
inactive: [1] -0.03 | [2] -0.003 | [3] 0.026 | [4] 0.007 | [5] -0.013 | [6] 0.017 | [7] -0.032 | [8] -0.01 | [9] -0.01 | [10] 0.041

UBA52 (UniProt P62987)
inactive: [1] -0.113 | [2] -0.266 | [3] -0.659 | [4] 0.093 | [5] -0.311 | [6] -0.024 | [7] -0.029 | [8] -0.082 | [9] 0.165 | [10] -0.04

TSR2 (UniProt Q969E8)
inactive: [1] -0.077 | [2] 0.011 | [3] -0.075 | [4] -0.024 | [5] 0 | [6] 0.054 | [7] 0.1 | [8] 0.015 | [9] -0.061 | [10] -0.004

UBE2B (UniProt P63146)
inactive: [1] 0.004 | [2] 0.049 | [3] 0.124 | [4] 0.121 | [5] 0.16 | [6] -0.03 | [7] 0.037 | [8] 0.023 | [9] 0.08 | [10] -0.027

UBE2G1 (UniProt P62253)
inactive: [1] 0.031 | [2] 0.015 | [3] 0.06 | [4] -0.003 | [5] -0.005 | [6] 0.033 | [7] -0.046 | [8] 0.023 | [9] 0.015 | [10] 0.017

TUBB4B (UniProt P68371)
inactive: [1] -0.002 | [2] 0.098 | [3] 0.019 | [4] 0.052 | [5] -0.004 | [6] -0.053 | [7] 0.03 | [8] 0.031 | [9] -0.013 | [10] 0.06

U2SURP (UniProt O15042)
inactive: [1] 0.072 | [2] 0.106 | [3] -0.116 | [4] -0.005 | [5] -0.012 | [6] 0.155 | [7] 0.05 | [8] -0.08 | [9] -0.105 | [10] -0.128

TUBA1B (UniProt P68363)
inactive: [1] 0.027 | [2] -0.007 | [3] 0.034 | [4] 0.01 | [5] 0.014 | [6] 0.01 | [7] 0.016 | [8] -0.016 | [9] 0.02 | [10] 0.08

TUBA4A (UniProt P68366)
inactive: [1] 0.016 | [2] 0.048 | [3] 0.048 | [4] -0.038 | [5] 0.069 | [6] -0.04 | [7] -0.037 | [8] 0.027 | [9] -0.015 | [10] 0.075

UBA2 (UniProt Q9UBT2)
inactive: [1] -0.035 | [2] 0.086 | [3] 0.077 | [4] 0 | [5] 0.022 | [6] 0.043 | [7] -0.022 | [8] 0.009 | [9] -0.002 | [10] -0.023

TXNRD1 (UniProt Q16881)
inactive: [1] 0.021 | [2] 0.049 | [3] 0.057 | [4] -0.006 | [5] 0.009 | [6] 0.074 | [7] 0.027 | [8] 0.019 | [9] 0.005 | [10] 0.046

TXN2 (UniProt Q99757)
inactive: [1] -0.035 | [2] -0.022 | [3] 0.093 | [4] -0.032 | [5] 0.086 | [6] 0.098 | [7] -0.02 | [8] 0.029 | [9] 0.029 | [10] 0.005

TUBB3 (UniProt Q13509)
inactive: [1] 0.023 | [2] 0.05 | [3] 0.037 | [4] 0.032 | [5] -0.022 | [6] -0.035 | [7] 0.095 | [8] 0.017 | [9] -0.024 | [10] 0.081

TTI1 (UniProt O43156)
inactive: [1] -0.078 | [2] 0.115 | [3] -0.015 | [4] -0.045 | [5] 0.057 | [6] 0.028 | [7] 0.029 | [8] 0.008 | [9] 0.019 | [10] 0.028

TUBB (UniProt P07437)
inactive: [1] 0.008 | [2] -0.015 | [3] 0.043 | [4] 0.034 | [5] 0.013 | [6] -0.013 | [7] 0.019 | [8] 0.011 | [9] 0.016 | [10] 0.08

TWNK (UniProt Q96RR1)
inactive: [1] -0.044 | [2] -0.057 | [3] 0.1 | [4] 0.019 | [5] 0.061 | [6] 0.104 | [7] 0.026 | [8] -0.007 | [9] -0.001 | [10] -0.109

TSR1 (UniProt Q2NL82)
inactive: [1] -0.023 | [2] -0.017 | [3] -0.169 | [4] 0.032 | [5] -0.023 | [6] -0.026 | [7] 0.038 | [8] 0.085 | [9] 0.024 | [10] -0.181
